These results are taken from PubChem BioAssay AID1487 (National Center for Advancing Translational Sciences (NCATS), 2009).

The term AC50 denotes the concentration giving half of the maximal activity seen.

This test in a line: qHTS Assay for Modulators of Lamin A Splicing. As to conditions: HeLa LMNA splicing GFP/RFP minigene ratio, 48 h. In short, it runs like this:
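S3 HeLa cells stably expressing lamin A-EGFP splicing minigene plus DsRed2, 600 cells/well, 48 h compound exposure at 37C. Laser-scanning cytometry; analysed as GFP (500-530 nm)/RFP (575-640 nm) total intensity ratio; 0.5% DMSO vehicle.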
In general terms: In qHTS, concentration-response curves come from the screen itself.

[1] abbreviates: measured here: GFP splicing reporter channel.
Setting [2] is: measured here: RFP viability control channel.

Structures are written as SMILES. Some of the results follow. Shown are side measurements of this screen, not its main read-out; they come without a call. The list favours compounds with an active or inconclusive main result. The note in brackets gives the kind of curve behind each potency; many fits are weak.

Turning to `C[Si](C)(C)O[Si](C)(C)C`, under setting [1], the AC50 is 0.00355 µM [falling, full curve, poor fit].

As for `CCN(CCNC(=O)CN1CCN(Cc2ccc(Cl)cc2)C1=O)c1ccccc1`, under setting [2], the AC50 was 31.6 µM [rising, single point].

For `CC(=O)Nc1ccc(NC(=O)c2c(C)nc3ccccn23)cc1`, the AC50 under setting [1] is 0.398 µM [falling, partial curve] and the concentration at half-maximal activity (AC50) under setting [2] was 0.355 µM [falling, partial curve].

Turning to `CCOc1ccc(CNC(=O)c2cc3oc4ccccc4c3n2C)cc1`, under setting [2], the AC50 was 3.55 µM [rising, full curve].

For `Cc1ccc(OCc2ccc(C(=O)NCc3cccnc3)cc2)cc1C`, the AC50 under setting [2] was 3.55 µM [falling, partial curve].

For `O=C(/C=C/c1ccc(OCCCF)cc1)Nc1ccnc(-c2cccnc2)n1`, the AC50 under setting [2] was 35.5 µM [falling, partial curve, poor fit].

On to `CCCC(=O)C1=C(N2CCCCC2)CC(C)(C)C(C(=O)OC)C1=O` (stereo unspecified), for which, under setting [2], the AC50 is 0.562 µM [falling, full curve, poor fit].

Take `COc1cc(C2NC(=S)NC(C)=C2C(=O)Nc2ccc(C)cc2)ccc1O` (stereo unspecified): the AC50 under setting [1] was 0.0126 µM [falling, full curve, poor fit].

For the molecule `COc1cc(/C=C/c2cc(C(F)(F)F)[nH]c(=O)n2)cc(OC)c1OC`, the AC50 was 28.2 µM [falling, partial curve] under setting [1] and 35.5 µM [falling, partial curve] under setting [2].

As to `CCOC(=O)N1CCC(NC(=O)c2cc(S(=O)(=O)NCCc3ccccc3)ccc2F)CC1`, the AC50 is, setting by setting: under setting [1], 12.6 µM [rising, single point]; under setting [2], 28.2 µM [rising, single point].

As for `COC(=O)c1nnn(-c2nonc2N)c1CN1CCc2ccccc21`, the AC50 under setting [2] is 11.2 µM [rising, partial curve, poor fit].

Consider `O=C(Nc1ccccc1)Nc1nnc(Cc2ccc([N+](=O)[O-])cc2)s1`, for which the AC50 under setting [1] was 0.355 µM [rising, full curve].

For the molecule `CCOc1cccc2cc(-c3nnc(Nc4ccc(F)c(Cl)c4)s3)c(=O)oc12`, under setting [1], the AC50 was 22.4 µM [rising, single point].

With `CCOc1cc(NC(=S)NCCCN2CCOCC2)c(OCC)cc1NC(=O)c1ccccc1C`, under setting [2], the AC50 is 0.794 µM [rising, full curve, poor fit].

`COC(=O)c1ccccc1NC(=O)Nc1ccc(Br)cn1`: the AC50 under setting [1] is 0.708 µM [falling, full curve, poor fit] and the AC50 under setting [2] was 0.794 µM [falling, full curve].

In the case of `Cc1[nH]c2ccccc2c1C(=O)CSc1nc2ncc(Cl)cc2[nH]1`, the AC50 runs as follows: under setting [1], 10 µM [falling, partial curve]; under setting [2], 7.08 µM [falling, full curve].
